# Assay results published in PubChem BioAssay AID1671190 (National Center for Advancing Translational Sciences (NCATS), 2021).
# Sequences of proteins named here, by UniProt entry; tags and fusion partners are left off.
# UniProt P18054, whole entry, looked up: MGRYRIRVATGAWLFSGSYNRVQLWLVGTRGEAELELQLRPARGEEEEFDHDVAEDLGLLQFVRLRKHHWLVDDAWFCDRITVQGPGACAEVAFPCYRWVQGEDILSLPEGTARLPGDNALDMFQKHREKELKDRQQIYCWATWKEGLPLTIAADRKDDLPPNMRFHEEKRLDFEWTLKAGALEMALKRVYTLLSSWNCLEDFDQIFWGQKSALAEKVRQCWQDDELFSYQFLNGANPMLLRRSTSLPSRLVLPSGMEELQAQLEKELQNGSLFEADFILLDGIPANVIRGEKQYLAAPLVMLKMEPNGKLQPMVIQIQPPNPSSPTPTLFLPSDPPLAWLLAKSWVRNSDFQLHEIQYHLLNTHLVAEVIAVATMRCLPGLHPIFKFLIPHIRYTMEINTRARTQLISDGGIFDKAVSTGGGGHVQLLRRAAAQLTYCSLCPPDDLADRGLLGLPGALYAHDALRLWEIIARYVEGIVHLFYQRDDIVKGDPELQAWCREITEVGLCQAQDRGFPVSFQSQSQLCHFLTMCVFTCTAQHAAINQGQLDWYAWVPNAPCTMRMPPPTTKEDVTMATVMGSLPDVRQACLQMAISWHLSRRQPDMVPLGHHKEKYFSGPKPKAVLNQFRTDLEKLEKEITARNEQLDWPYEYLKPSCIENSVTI
# In all, about 580,000 compounds went through this assay and about 6,100 (1.1%) were called active. The inconclusive results got no clear call from the source; some entries with a clear call stand among them for comparison. Calls come from the whole dose curve; as a rule, active = well fitted inhibition curve with a large enough effect; inconclusive = small, poorly fitted or top-dose-only effect, or another doubt; inactive = no such curve, though single readings can be large or run the other way. Potencies beside an inconclusive call are fits to weak or partial responses and may not hold up.
# Target: Polyunsaturated fatty acid lipoxygenase ALOX12 (Homo sapiens) (UniProt P18054)
# Assay: Primary qHTS assay for inhibitors of human arachidonate 12S-lipoxygenase (ALOX12): Round 2
# Details: purified 12hLO, xylenol orange hydroperoxide absorbance; series mostly up to 108 µM
# Summary of the method: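 Purified human 12hLO at 150 nM in 25 mM Hepes, 0.01% Triton X-100, pH 7.0, preincubated 15 min at room temperature with compound. Reaction started with 40 uM arachidonic acid, 30 min at room temperature. Hydroperoxide measured by Fe-xylenol orange, 573/405 nm absorbance ratio.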
# Potency is the fitted concentration of half-maximal effect.
row,SMILES,Potency
1,O=[S+]([O-])(c1cccc(C(F)(F)F)c1)N1CCn2c(nnc2C2CCCNC2)C1 (stereo unspecified),inactive
2,COc1ccc(C2Nc3ccccc3NC3=C2C(=O)CC(C)(C)C3)c(OC)c1OC (stereo unspecified),"inconclusive: 35.5 µM [inhibitor, partial curve, poor fit]"
3,Cc1cc(C)c2cc(CN(CC3CCCO3)S(=O)(=O)c3ccc4c(c3)OCCO4)c(=O)[nH]c2c1 (stereo unspecified),"inconclusive: 1.26 µM [inhibitor, full curve]"
4,O=C1c2ccccc2NC(c2ccc(-c3cccc([N+](=O)[O-])c3)o2)N1O (stereo unspecified),"inconclusive: 50.1 µM [inhibitor, partial curve]"
5,COc1cc(S(=O)(=O)N2CCCCC2)c(OC)cc1Br,"inconclusive: 5.62 µM [inhibitor, partial curve, poor fit]"
6,CCN1CCN(C(c2cccs2)c2c(NC(=O)c3ccccc3)sc(C)c2C)CC1 (stereo unspecified),"inconclusive: 39.8 µM [inhibitor, partial curve, poor fit]"
7,N#Cc1ccc(C(=O)OCC(=O)Nc2cccc(S(=O)(=O)NC3=NCCC3)c2)cc1,"inconclusive: 100 µM [inhibitor, single point]"
8,O=C(O)c1cccc(NC(=S)NC(=O)c2cncc(Br)c2)c1,"inconclusive: 44.7 µM [inhibitor, partial curve, poor fit]"
9,C=CCNC(=O)c1ccccc1NC(=O)c1ccccn1,inactive
10,COc1cc(C(O)c2nc(-c3cc(F)cc(F)c3)cs2)ccc1F (stereo unspecified),inactive
11,COc1ccccc1CN1CCN(C(=O)C2CCCN(Cc3cccnc3)CCC(=O)NCC2)CC1 (stereo unspecified),inactive
12,CC(=O)O[C@@H]1[C@@H](OC(C)=O)[C@H](n2ccc3cc([N+](=O)[O-])ccc32)OC[C@@H]1OC(C)=O,"inconclusive: 5.62 µM [inhibitor, partial curve, poor fit]"
13,Cc1cc(NC(=O)CSc2ccc3nnc(-c4ccc(Cl)cc4)n3n2)no1,"inconclusive: 35.5 µM [inhibitor, partial curve, poor fit]"
14,CCC(C)(C)C1CCC(NC(=O)C(=O)Nc2cccc(Cl)c2C)CC1 (stereo unspecified),"inconclusive: 50.1 µM [inhibitor, partial curve, poor fit]"
15,O=C(O)c1cnn(-c2ccccc2)c1-c1ccncc1,inactive
16,Cc1ccc2c(c1)CCCN2C(=O)C1CCCO1 (stereo unspecified),"inconclusive: 7.08 µM [inhibitor, full curve, poor fit]"
17,CSc1nc2ccsc2c(=O)n1-c1ccccn1,"inconclusive: 39.8 µM [inhibitor, partial curve, poor fit]"
18,Cc1ccc(CCNC(=O)c2cc3n(n2)CCCN(Cc2ccc(C)cc2)C3=O)cc1,"inconclusive: 141 µM [inhibitor, partial curve, poor fit]"
19,O=C(NCc1ccnc2[nH]ccc12)c1ccc(Cl)cc1,"inconclusive: 126 µM [inhibitor, partial curve, poor fit]"
20,COc1cc(OCc2ccccc2)c2c(CCC(=O)O)cc(=O)oc2c1,inactive
21,COc1ccc(CCn2nnnc2C(C(C)C)N2CCC(C(N)=O)CC2)cc1OC (stereo unspecified),inactive
22,CC1(C)OC(=O)C2=C(C[C@@H](C3CCCCC3)O[C@H]2c2ccc(F)cc2)O1,"inconclusive: 3.55 µM [inhibitor, full curve, poor fit]"

row,SMILES,Potency
1,COc1cccc(CN2CCC(N(CCc3ccccc3)Cc3ccccc3)CC2)c1OC,"inconclusive: 1.12 µM [inhibitor, full curve, poor fit]"
2,CCc1ccc2cc(-c3ccc(C)c(C)c3)cn2c1,active: 25.1 µM
3,CC(=O)Nc1ccccc1-c1c(C)nn2c1N(CCC(C)C)CCC2,"inconclusive: 25.1 µM [inhibitor, partial curve, poor fit]"
4,COc1ccc(NC(=O)Nc2nnc(-c3ccncc3)s2)cc1,inactive
5,C[C@H]1CN([C@@H](C)CO)S(=O)(=O)c2ccc(C#CC3CC3)cc2O[C@H]1CN(C)C(=O)c1cccnc1,"inconclusive: 56.2 µM [inhibitor, partial curve, poor fit]"
6,CCOC(=O)C1=C(COC(=O)CCc2ccc(F)cc2)NC(=O)NC1C (stereo unspecified),"inconclusive: 112 µM [inhibitor, partial curve, poor fit]"
7,Cn1c(SCc2nc3ccccc3s2)nnc1-c1ccc2c(c1)OCO2,"inconclusive: 44.7 µM [inhibitor, partial curve, poor fit]"
8,O=C1C2CCCN2C(=O)N1CCN1CCN(c2ccccc2)CC1 (stereo unspecified),"inconclusive: 35.5 µM [inhibitor, full curve, poor fit]"
9,CC(=O)Nc1cccc(-n2nnc(SCC(=O)c3ccccc3)n2)c1,"inconclusive: 100 µM [inhibitor, single point]"
10,Cc1noc([C@@H]2CN(C(=O)NCc3ccccc3)C[C@H]2C(N)=O)n1,inactive
11,CCOC(=O)c1sc(N2C(=O)C(O)=C(C(=O)c3ccco3)C2c2ccco2)nc1C (stereo unspecified),"inconclusive: 50.1 µM [inhibitor, partial curve, poor fit]"
12,Cc1cccc2[nH]c(COCC(=O)N3CCc4c(nc[nH]c4=O)C3)nc12,"inconclusive: 25.1 µM [inhibitor, full curve, poor fit]"
13,Cc1cc(Cl)ccc1NC(=S)NCc1cccs1,"inconclusive: 50.1 µM [inhibitor, partial curve, poor fit]"
14,CCOc1ccc(-n2c(C)cc(/C=N/N(C)C)c2C)cc1,"inconclusive: 35.5 µM [inhibitor, single point]"
15,Cc1cc(=O)oc2cc(OCC(=O)Oc3ccc4ccccc4c3)ccc12,"inconclusive: 35.5 µM [inhibitor, partial curve, poor fit]"
16,O=C(NC1CCS(=O)(=O)C1)c1sc2ccccc2c1Cl (stereo unspecified),inactive
17,COc1c(Br)cc2c(C)c(C(=O)O)oc2c1Br,"inconclusive: 35.5 µM [inhibitor, partial curve, poor fit]"
18,O=C(c1ccncc1)N1CCN(S(=O)(=O)c2cccc(F)c2)CC1,"inconclusive: 44.7 µM [inhibitor, partial curve, poor fit]"
19,Cc1ccnc(Nc2nc(C)c3cccc(C)c3n2)n1,inactive
20,CCOC(=O)c1c(-c2ccc(-c3ccccc3)cc2)csc1NC(=O)CNCCN(C)C,"inconclusive: 39.8 µM [inhibitor, partial curve]"
21,O=C(c1ccccc1)C(Sc1ncn[nH]1)c1ccccc1 (stereo unspecified),"inconclusive: 20 µM [inhibitor, partial curve, poor fit]"
22,O/C(=C\c1nc2ccccc2[nH]1)c1cccs1,"inconclusive: 50.1 µM [inhibitor, partial curve, poor fit]"

row,SMILES,Potency
1,Fc1cccc(NC(=S)NCCCCc2ccccc2)c1,"inconclusive: 39.8 µM [inhibitor, partial curve, poor fit]"
2,N#C/C(=C/c1ccc(O)cc1)c1nc2ccccc2[nH]1,inactive
3,CN(C)[C@H]1C[C@@H](Cc2cc(CCO)on2)C1(C)C,inactive
4,CC(C)(C)c1[nH]nc2c1C(c1cccnc1)C(C#N)=C(N)O2 (stereo unspecified),inactive
5,CC(C)CCN1CCC(N2CCN(C(=O)c3ccncc3)CC2)C1=O (stereo unspecified),"inconclusive: 5.62 µM [inhibitor, full curve, poor fit]"
6,COc1ccccc1N1CCN(/N=C/C=C\c2ccco2)CC1,"inconclusive: 7.08 µM [inhibitor, full curve]"
7,CCSc1nc2sc3c(c2c(=O)n1-c1ccccc1C)CCN(C)C3,"inconclusive: 28.2 µM [inhibitor, partial curve, poor fit]"
8,Cn1c(Cl)c(C=O)c2cc(C=O)ccc21,inactive
10,CCOC(=O)CN(CC(=O)NC1(C#N)CCCC1)C1CC1,"inconclusive: 35.5 µM [inhibitor, partial curve]"
11,COc1cc(-c2c(NC(=O)c3ccccc3F)oc3c(C)cccc3c2=O)cc(OC)c1OC,inactive
12,Cc1ccc(NC(=O)CSc2nnc3n2CCCCC3)cc1S(=O)(=O)N1CCOCC1,"inconclusive: 158 µM [inhibitor, single point]"
13,CCCCNCc1ccc(F)cc1,inactive
14,CC(C)[C@H](NC(=O)c1ccc([N+](=O)[O-])cc1Cl)C(=O)N1CCN(C/C=C/c2ccccc2)CC1,inactive
15,Cc1ccc2nc(/C(C#N)=C\c3ccc(N4CCOCC4)o3)[nH]c2c1,"inconclusive: 28.2 µM [inhibitor, single point]"
16,O=C(COC(=O)c1cc(=O)c2ccccc2o1)c1ccc(OC(F)F)cc1,"inconclusive: 22.4 µM [inhibitor, full curve, poor fit]"
17,CC(=O)Nc1cccc(NC(=O)c2cnn(-c3ccccc3F)c2C(F)(F)F)c1C,"inconclusive: 50.1 µM [inhibitor, partial curve, poor fit]"
18,O=C1OCc2ccc([N+](=O)[O-])cc21,inactive
19,Cc1ccc(CNCc2cccn2-c2nnc(N3CCCC3)s2)cc1,inactive
20,Cc1cc(C(=O)NC2CCCc3c2cnn3-c2ccc(C)c(C)c2)nc(C)n1 (stereo unspecified),inactive
21,COc1ccc(-c2nc3cnc(N4CCNCC4)nc3n(Cc3cccs3)c2=O)cc1,"inconclusive: 39.8 µM [inhibitor, partial curve, poor fit]"
22,Cc1ccccc1S(=O)(=O)N(C)C[C@H]1OCc2cnnn2CCCC(=O)N([C@H](C)CO)C[C@@H]1C,"inconclusive: 100 µM [inhibitor, partial curve, poor fit]"

# Two records drawn at random from those above:
row,SMILES,Potency
3,CN(C)[C@H]1C[C@@H](Cc2cc(CCO)on2)C1(C)C,inactive
14,CC(C)[C@H](NC(=O)c1ccc([N+](=O)[O-])cc1Cl)C(=O)N1CCN(C/C=C/c2ccccc2)CC1,inactive

# Compounds above containing a CF3 group:
row,SMILES,Potency
1,O=[S+]([O-])(c1cccc(C(F)(F)F)c1)N1CCn2c(nnc2C2CCCNC2)C1 (stereo unspecified),inactive
17,CC(=O)Nc1cccc(NC(=O)c2cnn(-c3ccccc3F)c2C(F)(F)F)c1C,"inconclusive: 50.1 µM [inhibitor, partial curve, poor fit]"
